These are yes or no findings as the source states them, for the method shown. Some entries that bind do so weakly or less than the wild type. One block for each binder: values may come before it.
Key:
[1] = biological target: HA-tagged human ILT7 on CT-550 cells (human) (UniProt P59901); test: flow cytometry on CT-550 cells
[2] = biological target: cynomolgus ILT7 (cynomolgus); test: flow cytometry on CynoILT7 CT-125 cells (sentence prints 'human ILT7')
[3] = biological target: cynomolgus ILT7 (cynomolgus); test: flow cytometry on CynoILT7 CT-125 cells
[4] = biological target: cynomolgus ILT7 (cynomolgus); test: FMAT cell binding assay, CHO-K1 cells expressing cynomolgus ILT7, IgG
human ILT7 (human) [5] = biological target: human ILT7 (human) (UniProt P59901); test: FMAT cell binding assay, CHO-K1 cells expressing human ILT7, IgG
human ILT7 (human) [6] = biological target: human ILT7 (human) (UniProt P59901); test: SPR on ProteOn; reference antibody of the comparison

By UniProt entry, the sequences of proteins in these tests, tags left out. Where a name states a change or a piece, a line headed by the entry shows the natural chain unless it says otherwise. Residues count along the entry.
UniProt P59901: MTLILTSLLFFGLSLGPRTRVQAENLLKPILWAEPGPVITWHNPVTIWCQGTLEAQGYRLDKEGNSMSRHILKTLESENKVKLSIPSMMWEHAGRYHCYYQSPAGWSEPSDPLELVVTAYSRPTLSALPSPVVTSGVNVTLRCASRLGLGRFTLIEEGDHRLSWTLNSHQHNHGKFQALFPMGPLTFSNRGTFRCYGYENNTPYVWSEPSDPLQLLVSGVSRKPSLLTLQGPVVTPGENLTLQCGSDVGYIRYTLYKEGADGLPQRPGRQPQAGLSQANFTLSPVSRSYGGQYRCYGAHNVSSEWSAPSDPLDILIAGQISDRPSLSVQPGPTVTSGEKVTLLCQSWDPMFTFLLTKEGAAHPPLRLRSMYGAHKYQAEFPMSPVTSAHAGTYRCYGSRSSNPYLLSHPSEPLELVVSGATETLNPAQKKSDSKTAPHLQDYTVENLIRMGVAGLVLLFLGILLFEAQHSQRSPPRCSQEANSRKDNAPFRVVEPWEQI
human ILT7: residues 24-499 of P59901

- binding [1]: binds
- binding [2]: binds
- binding [3]: binds
- binding [4]: binds
- binding (human ILT7 (human) [5]): binds
B1: ILT70142 (antibody, V domains shown)
VH: QVQLVQSGAEVKKPGASVKVSCKASGYTFTSYGISWVRQAPGQGLEWMGWISAYNGNTNYAQKLQGRVTMTRDTSISTAYMELSRLRSDDTAVYYCARNGLWGWDSDAFDIWGQGTTVTVSS
VL: QSVLTQPPSVSAAPGQKVTISCSGSSSNIGNNYVSWYQQLPGTAPKLLIYDNNKRPSGIPDRFSGSKSGTSATLGITGLQTGDEADYYCGTWDSSLSAGVFGTGTQLTVL

- binding [1]: binds
- binding [3]: binds
- binding [4]: binds
- binding (human ILT7 (human) [5]): binds
B2: ILT70144 (antibody, V domains shown)
VH: B1 VH
VL: B1 VL

- binding (human ILT7 (human) [6]): binds
B3: SBI28ch (antibody, V domains shown)
VH: QVQLQQSGAELVKPGASVKMSCKAFGYTFTTYPIEWMKQNHGKSLEWIGNFHPYNDDTKYNEKFKGKAKLTVEKSSSTVYLELSRLTSDDSAVYYCARGDDYGMDYWGQGTSVTVSS
VL: DIVMTQSQKFMSTSVGDRVSITCKASQNVRTAVAWYQQKPGQSPKALIYLASNRHTGVPDRFTGSGSGTDFTLTISNVQSEDLADYFCLQHWNYPFTFGSGTKLEIK
